Reference: the supplement of paper PMC8728848
The other results are listed elsewhere or left out.

Legend:
Experiment in all cases: glycan array binding signal (z-score within array); higher = stronger binding
Settings in all cases: glycan notation: IUPAC condensed, linker removed
[1] = target: Neu5Ac(a2-3)Gal(b1-4)[Fuc(a1-3)]GlcNAc(b1-3)GalNAc
Procedure, shortened: (§1)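 Glycan array binding is given as a within-array Z-score, which can be read as non-binding when negative. The arrays, 3228 of them, came from the Consortium for Functional Glycomics database and were retained only where the protein sequence was available. Z-scores were averaged across arrays of the same protein sequence at different concentrations or buffers and across linkers.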

[2] = target: Neu5Ac(a2-3)Gal(b1-4)[Fuc(a1-3)]GlcNAc(b1-6)[Gal(b1-3)]GalNAc
Procedure, shortened: as §1

[3] = target: Neu5Ac(a2-3)Gal(b1-4)[Fuc(a1-3)]GlcNAc(b1-6)[Neu5Ac(a2-3)Gal(b1-3)]GalNAc
Procedure, shortened: as §1

[4] = target: Neu5Ac(a2-3)Gal(b1-4)[Fuc(a1-3)]GlcNAc6S
Procedure, shortened: as §1

[5] = target: Neu5Ac(a2-3)Gal6S(b1-4)GlcNAc
Procedure, shortened: as §1

[6] = target: Neu5Ac(a2-3)Gal6S(b1-4)[Fuc(a1-3)]GlcNAc
Procedure, shortened: as §1

Neu5Ac(a2-3)GalNAc = target: Neu5Ac(a2-3)GalNAc
Procedure, shortened: as §1

[7] = target: Neu5Ac(a2-3)GalNAc(b1-4)GlcNAc
Procedure, shortened: as §1

[8] = target: Neu5Ac(a2-3)[GalNAc(b1-4)]Gal(b1-4)Glc
Procedure, shortened: as §1

[9] = target: Neu5Ac(a2-3)[GalNAc(b1-4)]Gal(b1-4)GlcNAc
Procedure, shortened: as §1

[10] = target: Neu5Ac(a2-3)[Neu5Ac(a2-6)]GalNAc
Procedure, shortened: as §1

Neu5Ac(a2-6)Gal = target: Neu5Ac(a2-6)Gal
Procedure, shortened: as §1

Neu5Ac(a2-6)Gal(b1-4)Glc = target: Neu5Ac(a2-6)Gal(b1-4)Glc
Procedure, shortened: as §1

[11] = target: Neu5Ac(a2-6)Gal(b1-4)GlcNAc
Procedure, shortened: as §1

[12] = target: Neu5Ac(a2-6)Gal(b1-4)GlcNAc(b1-2)Man(a1-3)Man(b1-4)GlcNAc(b1-4)GlcNAc
Procedure, shortened: as §1

[13] = target: Neu5Ac(a2-6)Gal(b1-4)GlcNAc(b1-2)Man(a1-3)[Gal(b1-4)GlcNAc(b1-2)Man(a1-6)]Man(b1-4)GlcNAc(b1-4)GlcNAc
Procedure, shortened: as §1

[14] = target: Neu5Ac(a2-6)Gal(b1-4)GlcNAc(b1-2)Man(a1-3)[GlcNAc(b1-2)Man(a1-6)]Man(b1-4)GlcNAc(b1-4)GlcNAc
Procedure, shortened: as §1

[15] = target: Neu5Ac(a2-6)Gal(b1-4)GlcNAc(b1-2)Man(a1-3)[GlcNAc(b1-2)Man(b1-4)GlcNAc(b1-2)Man(a1-6)]Man(b1-4)GlcNAc(b1-4)GlcNAc
Procedure, shortened: as §1

[16] = target: Neu5Ac(a2-6)Gal(b1-4)GlcNAc(b1-2)Man(a1-3)[Man(a1-6)]Man(b1-4)GlcNAc(b1-4)GlcNAc
Procedure, shortened: as §1

[17] = target: Neu5Ac(a2-6)Gal(b1-4)GlcNAc(b1-2)Man(a1-3)[Neu5Ac(a2-6)Gal(b1-4)GlcNAc(b1-2)Man(a1-6)]Man(b1-4)GlcNAc(b1-4)GlcNAc
Procedure, shortened: as §1

[18] = target: Neu5Ac(a2-6)Gal(b1-4)GlcNAc(b1-2)Man(a1-6)Man(b1-4)GlcNAc(b1-4)GlcNAc
Procedure, shortened: as §1

[19] = target: Neu5Ac(a2-6)Gal(b1-4)GlcNAc(b1-2)Man(a1-6)[Gal(b1-4)GlcNAc(b1-2)Man(a1-3)]Man(b1-4)GlcNAc(b1-4)GlcNAc
Procedure, shortened: as §1

[20] = target: Neu5Ac(a2-6)Gal(b1-4)GlcNAc(b1-2)Man(a1-6)[GlcNAc(b1-2)Man(a1-3)]Man(b1-4)GlcNAc(b1-4)GlcNAc
Procedure, shortened: as §1

[21] = target: Neu5Ac(a2-6)Gal(b1-4)GlcNAc(b1-2)Man(a1-6)[Man(a1-3)]Man(b1-4)GlcNAc(b1-4)GlcNAc
Procedure, shortened: as §1

[22] = target: Neu5Ac(a2-6)Gal(b1-4)GlcNAc(b1-3)Gal(b1-3)GlcNAc
Procedure, shortened: as §1

[23] = target: Neu5Ac(a2-6)Gal(b1-4)GlcNAc(b1-3)Gal(b1-4)GlcNAc
Procedure, shortened: as §1

[24] = target: Neu5Ac(a2-6)Gal(b1-4)GlcNAc(b1-3)Gal(b1-4)GlcNAc(b1-3)Gal(b1-4)GlcNAc
Procedure, shortened: as §1

[25] = target: Neu5Ac(a2-6)Gal(b1-4)GlcNAc(b1-3)Gal(b1-4)[Fuc(a1-3)]GlcNAc(b1-3)Gal(b1-4)[Fuc(a1-3)]GlcNAc
Procedure, shortened: as §1

[26] = target: Neu5Ac(a2-6)Gal(b1-4)GlcNAc(b1-3)GalNAc
Procedure, shortened: as §1

[27] = target: Neu5Ac(a2-6)Gal(b1-4)GlcNAc6S
Procedure, shortened: as §1

Neu5Ac(a2-6)GalNAc = target: Neu5Ac(a2-6)GalNAc
Procedure, shortened: as §1

[28] = target: Neu5Ac(a2-6)GalNAc(b1-4)GlcNAc
Procedure, shortened: as §1

[29] = target: Neu5Ac(a2-6)GlcNAc(b1-4)GlcNAc
Procedure, shortened: as §1

[30] = target: Neu5Ac(a2-6)GlcNAc(b1-4)GlcNAc(b1-4)GlcNAc
Procedure, shortened: as §1

Neu5Ac(a2-8)Neu5Ac = target: Neu5Ac(a2-8)Neu5Ac
Procedure, shortened: as §1

[31] = target: Neu5Ac(a2-8)Neu5Ac(a2-3)Gal(b1-4)Glc
Procedure, shortened: as §1

[32] = target: Neu5Ac(a2-8)Neu5Ac(a2-3)[GalNAc(b1-4)]Gal(b1-4)Glc
Procedure, shortened: as §1

[33] = target: Neu5Ac(a2-8)Neu5Ac(a2-8)Neu5Ac
Procedure, shortened: as §1

[34] = target: Neu5Ac(a2-8)Neu5Ac(a2-8)Neu5Ac(a2-3)Gal(b1-4)Glc
Procedure, shortened: as §1

[35] = target: Neu5Ac(a2-8)Neu5Ac(a2-8)Neu5Ac(a2-3)[GalNAc(b1-4)]Gal(b1-4)Glc
Procedure, shortened: as §1

[36] = target: Neu5Ac(a2-8)Neu5Ac(a2-8)Neu5Ac(a2-8)Neu5Ac(a2-3)[GalNAc(b1-4)]Gal(b1-4)Glc
Procedure, shortened: as §1

[37] = target: Neu5Ac(b2-6)Gal(b1-4)GlcNAc
Procedure, shortened: as §1

Neu5Ac(b2-6)GalNAc = target: Neu5Ac(b2-6)GalNAc
Procedure, shortened: as §1

[38] = target: Neu5Ac9Ac(a2-3)Gal(b1-3)GlcNAc
Procedure, shortened: as §1

[39] = target: Neu5Ac9Ac(a2-3)Gal(b1-4)GlcNAc
Procedure, shortened: as §1

[40] = target: Neu5Ac9Ac(a2-6)Gal(b1-4)GlcNAc
Procedure, shortened: as §1

[41] = target: Neu5Gc(a2-3)Gal(b1-3)GlcNAc
Procedure, shortened: as §1

[42] = target: Neu5Gc(a2-3)Gal(b1-3)[Fuc(a1-4)]GlcNAc
Procedure, shortened: as §1

Neu5Gc(a2-3)Gal(b1-4)Glc = target: Neu5Gc(a2-3)Gal(b1-4)Glc
Procedure, shortened: as §1

[43] = target: Neu5Gc(a2-3)Gal(b1-4)GlcNAc
Procedure, shortened: as §1

[44] = target: Neu5Gc(a2-3)Gal(b1-4)[Fuc(a1-3)]GlcNAc
Procedure, shortened: as §1

[45] = target: Neu5Gc(a2-6)Gal(b1-4)GlcNAc
Procedure, shortened: as §1

Neu5Gc(a2-6)GalNAc = target: Neu5Gc(a2-6)GalNAc
Procedure, shortened: as §1

[46] = target: Neu5Gc(b2-6)Gal(b1-4)GlcNAc
Procedure, shortened: as §1

B1: Adiponectin (Rattus norvegicus), Q8K3R4 (protein)
chain: MLLLQALLFLLILPSHEGITATEGPGALVPPPKETCAGWMAGIPGYPGHNGIPGRDGRDGTPGEKGEKGDAGVLGPKGDPGDAGMTGAEGPRGFPGTPGRKGEPGEAAYMYHSAFSVGLETRVTVPNVPIRFTKIFYNQQNHYDGSTGKFHCNIPGLYYFSYHITVYMKDVKVSLFKKDKAVLFTYDQYQEKNVDQASGSMLLHLEVGDQVWLQVYGEGDNNGLYADNVNDSTFTGFLLYHDTN
glycan array binding signal (z-score) [1]: 1.34
glycan array binding signal (z-score) [2]: -0.125
glycan array binding signal (z-score) [3]: -0.662
glycan array binding signal (z-score) [4]: 0.564
glycan array binding signal (z-score) [5]: -0.728
glycan array binding signal (z-score) [6]: 1.6
glycan array binding signal (z-score) (Neu5Ac(a2-3)GalNAc): -0.478
glycan array binding signal (z-score) [7]: 0.48
glycan array binding signal (z-score) [8]: -0.609
glycan array binding signal (z-score) [9]: -0.816
glycan array binding signal (z-score) [10]: -0.522
glycan array binding signal (z-score) (Neu5Ac(a2-6)Gal): -0.739
glycan array binding signal (z-score) (Neu5Ac(a2-6)Gal(b1-4)Glc): -0.671
glycan array binding signal (z-score) [11]: 0.383
glycan array binding signal (z-score) [12]: 0.717
glycan array binding signal (z-score) [13]: 0.481
glycan array binding signal (z-score) [14]: 0.609
glycan array binding signal (z-score) [15]: -0.035
glycan array binding signal (z-score) [16]: 0.188
glycan array binding signal (z-score) [17]: 1.03
glycan array binding signal (z-score) [18]: -0.181
glycan array binding signal (z-score) [19]: 0.675
glycan array binding signal (z-score) [20]: -0.838
glycan array binding signal (z-score) [21]: -0.178
glycan array binding signal (z-score) [22]: -0.745
glycan array binding signal (z-score) [23]: -0.428
glycan array binding signal (z-score) [24]: -0.767
glycan array binding signal (z-score) [25]: -0.64
glycan array binding signal (z-score) [26]: 2.46
glycan array binding signal (z-score) [27]: 0.441
glycan array binding signal (z-score) (Neu5Ac(a2-6)GalNAc): -0.93
glycan array binding signal (z-score) [28]: -0.235
glycan array binding signal (z-score) [29]: -0.624
glycan array binding signal (z-score) [30]: -0.632
glycan array binding signal (z-score) (Neu5Ac(a2-8)Neu5Ac): 0.121
glycan array binding signal (z-score) [31]: 0.466
glycan array binding signal (z-score) [32]: 0.022
glycan array binding signal (z-score) [33]: -0.59
glycan array binding signal (z-score) [34]: 2.82
glycan array binding signal (z-score) [35]: 1.32
glycan array binding signal (z-score) [36]: 0.861
glycan array binding signal (z-score) [37]: -0.165
glycan array binding signal (z-score) (Neu5Ac(b2-6)GalNAc): 1.01
glycan array binding signal (z-score) [38]: -0.658
glycan array binding signal (z-score) [39]: -0.748
glycan array binding signal (z-score) [40]: 1.53
glycan array binding signal (z-score) [41]: 0.08
glycan array binding signal (z-score) [42]: 0.219
glycan array binding signal (z-score) (Neu5Gc(a2-3)Gal(b1-4)Glc): -0.534
glycan array binding signal (z-score) [43]: -0.295
glycan array binding signal (z-score) [44]: -1.11
glycan array binding signal (z-score) [45]: -0.729
glycan array binding signal (z-score) (Neu5Gc(a2-6)GalNAc): -0.529
glycan array binding signal (z-score) [46]: 1.03
